Measurements as given in PubChem BioAssay AID2685 (National Center for Advancing Translational Sciences (NCATS), 2010).
Some of the results follow. The main result of the screen is listed elsewhere. These columns were measured beside it and carry no call. Compounds called inactive in the main read-out are mostly missing here. Words in brackets tell the shape of the fitted curve; partial curves, single points and poor fits give uncertain potencies.

Assay: qHTS Assay for Lipid Storage Modulators in Drosophila S3 Cells;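 as to cell number change: cells counted by Cell Tracker Red CMTPX staining in the red channel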
Details: BODIPY lipid droplet fluorescence, 18-24 h; for cell number change: measured here: cell count max response, cells fed with added oleic acid
Method in brief: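 Laser-scanning cytometry quantifies lipid droplet accumulation (500–530 nm total intensity; droplet/cell object ratio) in oleic acid-fed (400 uM added) Drosophila S3 cells treated with a concentration series. 20 uM Triacsin C defined 100% inhibition.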

[1] = measured here: cell number channel AC50, cells fed with added oleic acid
[2] = measured here: lipid fluorescence (Fed channel) AC50, cells fed with added oleic acid

| SMILES | cell number change [%] | AC50 [1] | AC50 [2] |
| --- | --- | --- | --- |
| Cc1ccc(CNCC(O)(c2ccccc2)c2ccc(F)cc2)cc1 (stereo not given) | -71 | 29.1 µM [falling, single point] | 4.11 µM [falling, partial curve] |
| COc1cc(/C=C2/C(=N)N3C(=NC2=O)SN=C3S(C)(=O)=O)ccc1OS(=O)(=O)c1ccc(C)cc1 | -1.98 |  | 5.8 µM [rising, single point] |
| O=C(Nc1ccccc1C(=O)NCC1CCCO1)c1ccco1 (stereo not given) | 54.9 | 16.4 µM [rising, partial curve] | 6.51 µM [falling, single point] |
| Cc1cccc(NC(=O)C2c3ccccc3C(=O)N3CCc4ccccc4C23)n1 (stereo not given) | 2.16 |  | 0.103 µM [falling, full curve, poor fit] |
| COCc1cc(C)nc(SCC(=O)NC2CCCCC2C)c1C#N (stereo not given) |  | 6.51 µM [rising, single point] | 7.31 µM [rising, partial curve] |
| CC(C)Cc1nc(C(N)=O)c2[nH]c(=O)n(-c3ccc(F)cc3)c2n1 |  | 6.51 µM [falling, partial curve] | 0.92 µM [falling, full curve] |
| Cc1ccc(N(CC(=O)NCc2ccc3c(c2)OCO3)C(=O)CCC(=O)Nc2ccccn2)cc1 | 41 | 29.1 µM [rising, single point] |  |
| CCN=C1S/C(=C\c2cc(Cl)c(OC)c(OC)c2)C(=O)N1CC | 20.7 |  | 1.16 µM [rising, partial curve] |
| CCc1cc(-c2onc(C)c2-c2cscn2)c(O)cc1OC | 48.8 | 29.1 µM [rising, single point] | 29.1 µM [rising, single point] |
| CCN(CC)CCOCCOc1ccccc1F | 12.1 |  | 20.6 µM [falling, partial curve] |
| COc1ccc(OC)c(S(=O)(=O)NC2CCSc3ccccc32)c1 (stereo not given) | -4.7 |  |  |
| O=C(Nc1ccc(C(F)(F)F)cc1)c1ccc(NC(=O)C2CCCO2)cc1 (stereo not given) | 24.8 |  | 5.8 µM [rising, partial curve] |
| Cc1ccccc1N1CCN(CCCN2C(=O)CC(=C(c3ccccc3)c3ccccc3)C2=O)CC1 | 37.5 | 8.2 µM [rising, single point] |  |
| CN1CCN(/C=N/c2sc3c(c2C#N)CCCCC3)CC1 | -18.5 |  | 0.164 µM [rising, full curve, poor fit] |
| COc1cccc(C(O)c2cnc(C(C)C)n2C)c1OC (stereo not given) | -12.8 |  | 0.146 µM [falling, partial curve] |
| COc1ccc(S(=O)(=O)N2CCOCC2)cc1NC(=O)c1ccc2c(c1)OCO2 | -34.9 | 8.2 µM [falling, partial curve] | 11.6 µM [falling, partial curve, poor fit] |

Look-ups from the results shown.
cell number change [%] with CN1CCN(/C=N/c2sc3c(c2C#N)CCCCC3)CC1 is entered as -18.5
cell number change [%] with O=C(Nc1ccc(C(F)(F)F)cc1)c1ccc(NC(=O)C2CCCO2)cc1 (stereo not given) is entered as 24.8
